# From patent publication US7553826B2, “Cytarabine monophosphate prodrugs” (Metabasis Therapeutics, Inc., priority 2002, dated 2009)
# Some entries share one result that the patent states for a list of compounds. At least one structure is not confirmed: it was looked up by name or label, or the drawing left a doubt.
# Assay: Aqueous stability
# Type: physicochemical
# Settings: 50 μM
# Description: Diluted solutions (50 μM) were incubated at 37° C. in a Fisher Scientific dry bath incubator (catalog # 11-718-2) with samples collected every 24 hours and stored at −80° C. Plasma samples (100 μL) were quenched with 1 mL of acetonitrile. […] Samples were resuspended in 120 μL of mobile phase buffer before HPLC injection.
# Samples were analyzed on an HP1090 or HP1100 (Hewlett Packard) HPLC using a C-18 Alltech Econosphere column, 150 mm×4.6 mm (catalog # 70065), with a C-18 Alltech Econosphere guard column, 7.5 mm×4.6 mm (catalog # 96121). Samples were eluted with a methanol gradient: 0% for 5 minutes, then increasing to 10% at 10 minutes, 30% at 20 minutes, and 60% at 25 minutes. The column was allowed to equilibrate in 0% methanol for 10 minutes before the next injection. The flow rate was 1 mL/minute with a column temperature of 40° C. Prodrugs eluted around 19.5 minutes and were monitored by UV absorbance at 280 nm. For prodrugs in aqueous conditions, the same method was employed except the methanol gradient was as follows: 0% for 5 minutes, increasing to 10% at 10 minutes, and 30% at 20 minutes with prodrug eluting around 20 minutes.
# [1] = 10 mM potassium phosphate (Pi), pH 7.4, 37° C
Structure (SMILES),"t90 in aqueous solution (10 mM citrate, pH 5.0, 37° C)",t90 in aqueous solution [1],"t90 in aqueous solution (100 mM Pi, pH 7.4, 37° C)"
"Nc1ccn([C@@H]2O[C@H](CO[P@]3(=O)OCC[C@H](c4ccncc4)O3)[C@@H](O)[C@@H]2O)c(=O)n1 [Compound B, 2(1H)-Pyrimidinone, 4-amino-1-[5-O-[(2S,4R)-2-oxido-4-(4-pyridinyl)-1,3,2-dioxaphosphorinan-2-yl]-β-D-arabinofuranosyl]]",> 6 days,> 6 days,–
"Nc1ccn([C@@H]2O[C@H](CO[P@@]3(=O)OCC[C@@H](c4ccncc4)O3)[C@@H](O)[C@@H]2O)c(=O)n1 [Compound A, 2(1H)-Pyrimidinone, 4-amino-1-[5-O-[(2R,4S)-2-oxido-4-(4-pyridinyl)-1,3,2-dioxaphosphorinan-2-yl]-β-D-arabinofuranosyl]]",> 6 days,> 6 days,> 6 days
